# Measured values: paper PMC7819943, “Rice protein-binding microarrays: a tool to detect cis-acting elements near promoter regions in rice”
# Chains of the proteins cited; added tags and fusions are not shown.
# UniProt Q0JBA9, entry or part of it: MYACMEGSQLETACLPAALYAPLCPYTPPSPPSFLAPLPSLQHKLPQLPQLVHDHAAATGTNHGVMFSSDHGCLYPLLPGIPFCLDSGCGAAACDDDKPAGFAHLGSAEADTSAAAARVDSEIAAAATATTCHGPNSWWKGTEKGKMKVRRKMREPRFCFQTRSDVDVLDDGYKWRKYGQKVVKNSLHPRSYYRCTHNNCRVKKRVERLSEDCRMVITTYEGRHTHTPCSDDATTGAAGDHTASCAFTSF
# The list shows a part of the results.
# Molecular target: OsWRKY34 (Oryza sativa, UniProt Q0JBA9 1-250)
# Assay: protein-binding microarray (RPBM); PBS, 2% BSA, 51.3 ng/ul salmon testes DNA, 50 uM zinc acetate, 200 nM TF, 25 C, 1 h; high values mean tight binding
# Conditions: protein: recombinant; tags: N-terminal polyhistidine and DsRed monomer fusion (pET32a); label: CyDye5-dUTP incorporated in the synthesized complementary strand; 3' TTTTT single-stranded linker to array surface; dsDNA, one strand shown
# How it was run: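 Ni–NTA purification followed expression in E. coli BL21-CodonPlus of transcription factors fused N-terminally to a polyhistidine tag and DsRed. At 200 nM in PBS with 2% BSA, salmon testes DNA and 50 µM zinc acetate, the protein was incubated for 1 h at 25 °C with a custom Agilent array that had been primer-extended with Cy5-dUTP and blocked with 2% BSA. After washing, the array was read on an Axon 4000B scanner. The binding signal is per-feature fluorescence intensity in arbitrary units.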
row,Sequence,binding signal
1,GATTAGACTCCCCTTCTCTGGTCCCATCGTCGCGTTGTTTCGGAGTCACCTAGTGCAG,8510 fluorescence intensity (a.u.)
2,CAGCTGCATGGGTTTTTTCTTTTTCTTTCCCCAAAATCGACGGAGTCACCTAGTGCAG,8140 fluorescence intensity (a.u.)
3,CCTTAGCGTTCACACCTGTTCCTTTCCCGCGCTTCGGATTCGGAGTCACCTAGTGCAG,10700 fluorescence intensity (a.u.)
4,AGCTACTGATCAGTGCTTCTGTATTTTTTTTAACTGCTGTCGGAGTCACCTAGTGCAG,9090 fluorescence intensity (a.u.)
5,TTCAAATCCAGTCGCAATTGTTCGTTTAGCTCCCGTTACGCGGAGTCACCTAGTGCAG,8460 fluorescence intensity (a.u.)
6,GAAGTCAACATCACACATATTTTAATTACGGGGTATAGTACGGAGTCACCTAGTGCAG,10500 fluorescence intensity (a.u.)
7,AGCTCACATGGATATTTGATCTTTATGGTGTTACTGAGCACGGAGTCACCTAGTGCAG,8130 fluorescence intensity (a.u.)
8,CCCTTGACCCCGGGTTTGTTTGTTTATGGACCTGGATGAACGGAGTCACCTAGTGCAG,9960 fluorescence intensity (a.u.)
9,AGGAGGTGCGATGCCGGCGTCCCATTGTCATTGATCTTGACGGAGTCACCTAGTGCAG,8920 fluorescence intensity (a.u.)
10,GCGCTCGCGTGGTTCCCGGTGGCGGCGGCGGCGGTGGCGGCGGAGTCACCTAGTGCAG,8320 fluorescence intensity (a.u.)
11,TGCCTGCCCCGCCACTTTTTTTGATGCTAAAAGTCATTTACGGAGTCACCTAGTGCAG,10000 fluorescence intensity (a.u.)
12,ACTTAGGCATGCCACTCCTCATGATCTCATAGTTTACTGTCGGAGTCACCTAGTGCAG,9310 fluorescence intensity (a.u.)
13,GCTGCCGTCCTACTCGCCGCCCTCCTCATCATGGCTTAATCGGAGTCACCTAGTGCAG,9490 fluorescence intensity (a.u.)
14,TGTCTCCAATCACCCTTGTCGTCCAACCCCTGCTTTCCTGCGGAGTCACCTAGTGCAG,8970 fluorescence intensity (a.u.)
15,TTTTGGAGGAATTTTTCTTGTGAACTTTTTTCTTTTTAAACGGAGTCACCTAGTGCAG,8150 fluorescence intensity (a.u.)
16,TTTTTTTGCCGGGTTTTTTTGGAGAGGTTTTGTGAGCATGCGGAGTCACCTAGTGCAG,9510 fluorescence intensity (a.u.)
17,AGGAGTACATCTGTTATCTTTCTCTTTTTCTCTTTTTCTTCGGAGTCACCTAGTGCAG,9920 fluorescence intensity (a.u.)
18,ACATGATCTCATCCGTCCATCTGCCATGACATCTAATCTCCGGAGTCACCTAGTGCAG,8220 fluorescence intensity (a.u.)
19,AGTTTTGCACTGTTTATGTCTCACGTTTGACCGTTCGTTTCGGAGTCACCTAGTGCAG,11400 fluorescence intensity (a.u.)
20,AATGGCTGTTTGTTCCTTGATTGCCACGTCTCTTTCCATCCGGAGTCACCTAGTGCAG,11100 fluorescence intensity (a.u.)
21,ACTGCTCTTATCTCTCTTCTTTTATCTTCTTAAAATATGTCGGAGTCACCTAGTGCAG,11200 fluorescence intensity (a.u.)

row,Sequence,binding signal
1,TTTGTCCTGGGCTTCTTTCGGCCCAATCTCTCTCCCGTCGCGGAGTCACCTAGTGCAG,11100 fluorescence intensity (a.u.)
2,ACATGCACGCTGTTCGTTCCGCTCCGTCCGTTCACACGCGCGGAGTCACCTAGTGCAG,9090 fluorescence intensity (a.u.)
3,CCCCAGCCGCTGCCGCTGCCATGTGCAATCATCCCCGCATCGGAGTCACCTAGTGCAG,8760 fluorescence intensity (a.u.)
4,CCCGGATACTATAGGTGGACACCTTCGAGTCGCTTCTCTCCGGAGTCACCTAGTGCAG,8160 fluorescence intensity (a.u.)
5,CGATCTCTGGTTCCCTGTGCCGAAACTTATCTATTCAACTCGGAGTCACCTAGTGCAG,9150 fluorescence intensity (a.u.)
6,TATTTTCCCCTTCTCAGTCCTCACACGTTCTCTTCCTCTCCGGAGTCACCTAGTGCAG,9480 fluorescence intensity (a.u.)
7,ACTACCTTTTGTTTTGTTGGATACACTTGAAGGTTAATTTCGGAGTCACCTAGTGCAG,8310 fluorescence intensity (a.u.)
8,TACTTAATCCCATCGTCCATCCGCCATCTCATCTGATCTCCGGAGTCACCTAGTGCAG,14200 fluorescence intensity (a.u.)
9,CTTCTCTCTCTCTCTCTGACTACCAGCACGAAGATGACGACGGAGTCACCTAGTGCAG,9070 fluorescence intensity (a.u.)
10,GTACTATAATACTCTCTCCGTCCCTAAATATTTGACGCCGCGGAGTCACCTAGTGCAG,9340 fluorescence intensity (a.u.)
11,GGTCTATGTCTCTCTGATTATTTCTTTTACTAATTGTTTGCGGAGTCACCTAGTGCAG,9060 fluorescence intensity (a.u.)
12,GTTGTACTGCATCTGTAATATACTCCTTATATTCCTTCATCGGAGTCACCTAGTGCAG,8650 fluorescence intensity (a.u.)
13,ATTTCTAAAGTGTATTTCTATATGGACTCTAGTCTTCTCTCGGAGTCACCTAGTGCAG,8740 fluorescence intensity (a.u.)
14,GACCCACCACCACCACCACGCCGCGAGCACGCGAGCGAACCGGAGTCACCTAGTGCAG,8880 fluorescence intensity (a.u.)
15,CCGGCCGGCCGGCCGCACCTCCACCACCGCACAGCACCTCCGGAGTCACCTAGTGCAG,8280 fluorescence intensity (a.u.)
16,GAAGAGGGTGGTGATATTGTTCTGGATGATACTTTTGAAGCGGAGTCACCTAGTGCAG,10700 fluorescence intensity (a.u.)
17,CATCCTTTTCATCTCCCACCTCCTCACTCCTCGTCAGTTCCGGAGTCACCTAGTGCAG,8280 fluorescence intensity (a.u.)
18,CTCCGTCCATCAAGCTACCAAACAACCGCCAGCGTAATCGCGGAGTCACCTAGTGCAG,9020 fluorescence intensity (a.u.)
19,CCTCTTTTGCTGTGGACAATCAAAGCCTTTGTCTCACTATCGGAGTCACCTAGTGCAG,10500 fluorescence intensity (a.u.)
20,CTGATCCGCCCACGCCTCGCCGTCCCCACCCGCGCCGCCTCGGAGTCACCTAGTGCAG,9100 fluorescence intensity (a.u.)
21,CATGTCACATATTACGTTCATTTGAGTTCAATTTTTCTATCGGAGTCACCTAGTGCAG,9810 fluorescence intensity (a.u.)

row,Sequence,binding signal
1,TTTCTACACCCTGTAGATCCTTGGACCCACATGCAGACCACGGAGTCACCTAGTGCAG,8730 fluorescence intensity (a.u.)
2,AATTATTTTTTCATTCTATGTGGGCCATCTTGTGGCTAAACGGAGTCACCTAGTGCAG,10200 fluorescence intensity (a.u.)
3,CAAGTAATCAAGTATCCCAGCAATTGCAGTTTTTTTTTCCCGGAGTCACCTAGTGCAG,9400 fluorescence intensity (a.u.)
4,CGTGTGTAGATCCTATTTTTTTCTTTAAACTTCCAACTTTCGGAGTCACCTAGTGCAG,9460 fluorescence intensity (a.u.)
5,GCTACATGTCCTTTCGTATCGTTGACGATGTCATGGGGTACGGAGTCACCTAGTGCAG,10900 fluorescence intensity (a.u.)
6,TTGTGTAGGGTTTGTACATGGACTGGGATCAATACCACTCCGGAGTCACCTAGTGCAG,10600 fluorescence intensity (a.u.)
7,TATTCAGTTTGCTCCAAATTTTATTGCTAATGCTACAGATCGGAGTCACCTAGTGCAG,8060 fluorescence intensity (a.u.)
8,TAAATACCGTTTTTAGCTAACAGTCTTCACGATCAACTAACGGAGTCACCTAGTGCAG,8450 fluorescence intensity (a.u.)
9,TTCTACCTATTTCAACCTCCAACTACCCGCTCACCACAACCGGAGTCACCTAGTGCAG,9040 fluorescence intensity (a.u.)
10,GGGGTGTGAATTCTGGCCGCACATTGTACCTACCCAAAAACGGAGTCACCTAGTGCAG,8920 fluorescence intensity (a.u.)
11,AGGGTCTATTTTTGTAATTTTTTTGGCCGATAGATTATTTCGGAGTCACCTAGTGCAG,10300 fluorescence intensity (a.u.)
12,CCTGTTCTTTGTCTTCAACTCATCATGCTGTGGATGGATTCGGAGTCACCTAGTGCAG,10300 fluorescence intensity (a.u.)
13,ATCCAGTGAGCTCGAGGCTTCCCATCTATCCGCCGTTGGTCGGAGTCACCTAGTGCAG,8260 fluorescence intensity (a.u.)
14,CACCGCCGAACGCACGATTTCTTCCCGACGCTGTCACTTGCGGAGTCACCTAGTGCAG,8190 fluorescence intensity (a.u.)
15,CGACCGCGCCGCACCACCCGCCCGATCCGCCCGCGACCTCCGGAGTCACCTAGTGCAG,12700 fluorescence intensity (a.u.)
16,CCCCAAGCCACACTCCACCCTGTGTTCGCTTTGTTCTCACCGGAGTCACCTAGTGCAG,8560 fluorescence intensity (a.u.)
17,TGCGCTTCTATCTCTATTTATACTGTGAATTCCAAGCAATCGGAGTCACCTAGTGCAG,8110 fluorescence intensity (a.u.)
18,CAAACCGCGAATTTACGTGCCAACGTTTGACTGTTCGTCTCGGAGTCACCTAGTGCAG,8730 fluorescence intensity (a.u.)
19,TTTCCGTTTTGCTACAGTTAGTTTTGTGTTGGGTTGGATTCGGAGTCACCTAGTGCAG,9740 fluorescence intensity (a.u.)
20,GTCCCATCGTCTCTATTCGGGTCACCTTTGCACAACATGACGGAGTCACCTAGTGCAG,10500 fluorescence intensity (a.u.)
21,GTCATTTTTGGCCTTTTTTGGCTGTCTGTTCGGTTTTTTTCGGAGTCACCTAGTGCAG,11500 fluorescence intensity (a.u.)

row,Sequence,binding signal
1,TATTTTTTTTCTTATTTTCCTTCAATTAATGTGGGATTTTCGGAGTCACCTAGTGCAG,9850 fluorescence intensity (a.u.)
2,CCGAAGTGTTTATGTTTAATTTTTTTGACAAATTTATGTTCGGAGTCACCTAGTGCAG,8310 fluorescence intensity (a.u.)
3,GTCCGTTTCAGCAAAGGTTATCTTCATCTCTGCAATTTTCCGGAGTCACCTAGTGCAG,11000 fluorescence intensity (a.u.)
4,TCCTACCGACGATTCCAGCCCACCACACTATGCAAAGCACCGGAGTCACCTAGTGCAG,8200 fluorescence intensity (a.u.)
5,CACTTATACTCCACTTACATTCCACTTAGGCACTTACACACGGAGTCACCTAGTGCAG,9110 fluorescence intensity (a.u.)
6,AGTATTGAGTTAGAGAATTATTGCATGGCCCATTTCCTTTCGGAGTCACCTAGTGCAG,10200 fluorescence intensity (a.u.)
7,GAGATATCAGTAGCAGATCCTCGGGTTTTCTCACTCGATGCGGAGTCACCTAGTGCAG,8220 fluorescence intensity (a.u.)
8,ATCTTTGTTTTCTTTCTTCCTTGGCATAGGCTGGTCTGGCCGGAGTCACCTAGTGCAG,11700 fluorescence intensity (a.u.)
9,CTATTTTTCTCCTTGGGATCATGGCAAGCATTTTTCGTCACGGAGTCACCTAGTGCAG,9370 fluorescence intensity (a.u.)
10,GCCGCCACCTTCGCCTTTATAAAGCTTACCTTTGCTACCACGGAGTCACCTAGTGCAG,11500 fluorescence intensity (a.u.)
11,CTTCCCCATCAGGCCATCACCCACCCACGCGCCTCGCTGACGGAGTCACCTAGTGCAG,10800 fluorescence intensity (a.u.)
12,TCGCTCGCCGCCGCTCCGCCGCCGCGCTCGCGCTCCACTGCGGAGTCACCTAGTGCAG,8640 fluorescence intensity (a.u.)
13,CTTTCTACTCGCAGCTACTGCCTTCGGCTGTGTTTAGATCCGGAGTCACCTAGTGCAG,10000 fluorescence intensity (a.u.)
14,CACTTGACTACTTGTCCATATCCACCTTGATTTTCGCTGACGGAGTCACCTAGTGCAG,8220 fluorescence intensity (a.u.)
15,GGTGAGCGTGTGCATGTTATGAGTCCATGCGTTTGTACTGCGGAGTCACCTAGTGCAG,9590 fluorescence intensity (a.u.)
16,TTCAAAGCTGCCTCTGTGTTAGCCCTTTGCTTAGCTACTACGGAGTCACCTAGTGCAG,8400 fluorescence intensity (a.u.)
17,CTCAATCTGGACCATTCATCTTTGATACACGCGTTTCCTACGGAGTCACCTAGTGCAG,8960 fluorescence intensity (a.u.)
18,TATTCCGAGCCGCCCCATCCACCCTACCCTCTAAACAAACCGGAGTCACCTAGTGCAG,8720 fluorescence intensity (a.u.)
19,ATACATCATATTCCATCTTCAACTTATCTTCATGTCATCACGGAGTCACCTAGTGCAG,10400 fluorescence intensity (a.u.)
20,GTAGCATGTAAATATCATTACTTTTTGTTGTTGTGACATTCGGAGTCACCTAGTGCAG,8970 fluorescence intensity (a.u.)
21,TTCACATTTCATTTAATTCTAGCAATTCATTTATTTCTTTCGGAGTCACCTAGTGCAG,10400 fluorescence intensity (a.u.)

# Looked up above.
# Entry for TATTCCGAGCCGCCCCATCCACCCTACCCTCTAAACAAACCGGAGTCACCTAGTGCAG under binding signal: 8720 fluorescence intensity (a.u.)
# Entry for TCGCTCGCCGCCGCTCCGCCGCCGCGCTCGCGCTCCACTGCGGAGTCACCTAGTGCAG under binding signal: 8640 fluorescence intensity (a.u.)
# Entry for CTTCCCCATCAGGCCATCACCCACCCACGCGCCTCGCTGACGGAGTCACCTAGTGCAG under binding signal: 10800 fluorescence intensity (a.u.)
# Entry for CTCAATCTGGACCATTCATCTTTGATACACGCGTTTCCTACGGAGTCACCTAGTGCAG under binding signal: 8960 fluorescence intensity (a.u.)
